Measurements published in patent publication US20110097416A1.
These are yes or no findings as the source states them, for the method shown. Some binding calls cover weakened binding; strength is not graded here.

Protein sequences, listed by entry. Tags and fused reporters are not part of them. Lines headed by an entry give the natural chain unless they say otherwise; changes in a name come on top. Residues count along the entry.
UniProt P16109: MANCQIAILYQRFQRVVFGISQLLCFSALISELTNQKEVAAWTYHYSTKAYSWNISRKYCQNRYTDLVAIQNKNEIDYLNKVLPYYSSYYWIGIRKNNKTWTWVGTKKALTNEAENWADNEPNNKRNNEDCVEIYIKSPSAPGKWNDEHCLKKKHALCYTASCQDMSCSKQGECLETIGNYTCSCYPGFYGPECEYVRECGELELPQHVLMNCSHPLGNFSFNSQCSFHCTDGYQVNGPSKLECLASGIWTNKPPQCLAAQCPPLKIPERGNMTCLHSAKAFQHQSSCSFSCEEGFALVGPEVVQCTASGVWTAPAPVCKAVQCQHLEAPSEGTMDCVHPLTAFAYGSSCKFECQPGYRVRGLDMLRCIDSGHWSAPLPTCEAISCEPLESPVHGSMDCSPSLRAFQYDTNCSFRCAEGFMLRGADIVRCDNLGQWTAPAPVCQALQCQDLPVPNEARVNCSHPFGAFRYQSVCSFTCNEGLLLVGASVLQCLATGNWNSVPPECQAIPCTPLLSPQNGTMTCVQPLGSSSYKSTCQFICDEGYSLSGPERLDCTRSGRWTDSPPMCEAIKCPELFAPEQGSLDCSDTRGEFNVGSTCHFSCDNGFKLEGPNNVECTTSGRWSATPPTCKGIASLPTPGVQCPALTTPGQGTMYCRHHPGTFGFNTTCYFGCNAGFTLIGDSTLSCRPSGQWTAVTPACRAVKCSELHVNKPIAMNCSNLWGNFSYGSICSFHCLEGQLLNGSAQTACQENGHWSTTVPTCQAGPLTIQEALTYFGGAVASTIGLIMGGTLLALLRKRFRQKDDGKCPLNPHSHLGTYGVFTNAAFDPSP
P-selectin expressed on histamine-activated endothelial cells (HAECs): residues 42-830 of P16109
P-selectin (R&D Systems), coated on glass slides: residues 42-771 of P16109
UniProt P07359, residues 17-531: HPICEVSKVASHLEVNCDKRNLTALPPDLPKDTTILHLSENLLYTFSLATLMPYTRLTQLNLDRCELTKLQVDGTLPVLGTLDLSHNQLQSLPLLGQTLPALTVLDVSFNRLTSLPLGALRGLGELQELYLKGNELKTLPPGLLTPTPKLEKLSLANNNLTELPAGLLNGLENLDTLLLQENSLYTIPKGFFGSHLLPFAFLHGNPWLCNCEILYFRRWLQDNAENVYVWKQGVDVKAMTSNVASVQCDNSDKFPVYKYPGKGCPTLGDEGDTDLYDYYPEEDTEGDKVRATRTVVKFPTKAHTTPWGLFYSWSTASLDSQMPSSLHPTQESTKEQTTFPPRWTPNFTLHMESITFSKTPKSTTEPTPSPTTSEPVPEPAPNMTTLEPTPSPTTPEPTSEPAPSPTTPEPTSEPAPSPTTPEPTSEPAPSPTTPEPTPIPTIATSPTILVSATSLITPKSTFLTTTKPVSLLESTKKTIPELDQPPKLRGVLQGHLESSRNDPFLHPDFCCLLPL

Columns and labels:
[1] = molecular target: P-selectin (R&D Systems), coated on glass slides (UniProt P16109); assay: PLGA nanoparticles on coated surfaces under flow
[2] = molecular target: P-selectin (R&D Systems), coated on glass slides (UniProt P16109); assay: 100-nm polystyrene nanoparticles on P-selectin coated surfaces under physiological flow
[3] = molecular target: P-selectin expressed on histamine-activated endothelial cells (HAECs) (UniProt P16109); assay: adhesion of GP Ib conjugated nanoparticles to HAECs under varying shear stress (FIG. 34)
[4] = molecular target: P-selectin (R&D Systems), coated on glass slides (UniProt P16109); assay: parallel plate flow chamber, polystyrene nanoparticles, fluorometer and confocal microscopy

Measured: binding

glycocalicin (the extracellular segment of platelet GP Ibα), biotinylated and bound through avidin to nanoparticles (from UniProt P07359 17-531) (receptor)
binds: all assays above
